Laboratory results as given in patent US20230332145A1, “BIFUNCTIONAL MOLECULES AND METHODS OF USING THEREOF” (Flagship Pioneering, Inc., priority 2020, published 2023).
Some entries share one result that the patent states for a list of compounds.

Each substance was assayed on MYC expression (assay: MYC expression by qPCR after RNAiMax transfection of HEK293T cells). Conditions: 133 nM, 24 hours.
Format: cell-based, human
Description: HEK293T cells were seeded at 30k cells/well in a 96 well tissue culture vessel day before transfection. […] Transfected cells were allowed to recover and were harvested after 24 hours. MYC expression was measured by RNA level using qPCR analysis after transfection with each of the bi-functional molecule or control molecules. Cell samples for qPCR analysis were prepared by Cells to Ct 1 Step TaqMan Kit (ThermoFisher A25602) following manufractuer’s recommendations. qPCR assays were performed using Cells to Ct qPCR master mix, gene specific TaqMan probe (ThermoFisher), and Cells to Ct cell lysate. Relative levels of MYC were normalized to β-actin as a stably expressed control. MYC TaqMan probe: ThermoFisher Assay ID Hs00153408_ml; ACTB TaqMan probe: ThermoFisher Assay ID Hs01060665_g1. During qPCR amplification, FAM fluorescence intensity for each target gene was recorded by QuantStudio7 qPCR instrument (ThermoFisher Scientific) as a measurement of the amount of double-stranded DNA produced during each PCR cycle. Ct values for each gene in each sample were computed by the instrument software based on the amplification curves, and used to determine relative expression values for target and β-actin in each sample.

Increase in MYC expression, more than 2 fold:
MYC ASO3-JQ1: MYC ASO3 (SEQ ID NO: 42) conjugated to JQ1 with linker 2 (CGGAGACGCACTTAGTGAAC; conjugated to JQ1 via linker 2, modification pattern not given here)
MYC ASO4-JQ1: MYC ASO4 (SEQ ID NO: 43) conjugated to JQ1 with linker 2 (GTCCTAACACCTCTAGAGAC; conjugated to JQ1 via linker 2, modification pattern not given here)
MYC ASO6-JQ1: MYC ASO6 (SEQ ID NO: 45) conjugated to JQ1 with linker 2 (GCATGAATACGTTAGAAAGG; conjugated to JQ1 via linker 2, modification pattern not given here)
